Experimental findings from US20080161273A1, “Method of Using Adapalene in Acne Maintenance Therapy” (GALDERMA RESEARCH & DEVELOPMENT, priority 2004, published 2008) are described below.

The nature of series [1]: 16-week maintenance therapy study: safety, local facial tolerability, adverse events, discontinuation. The class given is in vivo, human. As to conditions: 16-week study, all reasons. From the text: The efficacy and safety of the adapalene gel 0.1% (Galderma Laboratories, LP, Ft. Worth, Tex.) as a maintenance therapy were compared to gel vehicle in a randomized, multicenter, vehicle-controlled, investigator-blind, parallel group study conducted at 34 centers in the United States between Nov. 13, 2003 and May 25, 2004. This study was designed to set a high threshold for achieving success. […] These subjects were re-randomized consecutively in a 1:1 ratio to receive either adapalene gel 0.1% or adapalene gel vehicle once-daily in the evening for an additional 16 weeks. Subjects were stratified by the treatment assignment received in the previous study using an interactive voice responsive system. The randomization schedule remained blinded from those involved in the clinical conduct of the study. The integrity of the blinding was ensured by packaging the topical medication in identical tubes and requiring a third party other than the investigator/evaluator to dispense the medication.
Safety and tolerability were assessed through evaluations of local facial tolerability and adverse events. […] Mean scores at each postbaseline visit and worst score (worst observation recorded for a subject during the post-baseline period) were recorded. Adverse events were also evaluated at each visit.
Three study populations were analyzed. […]

A short description of series [2]: 5-question subject satisfaction survey at last visit of the maintenance study. The class given is in vivo, human. From the text:
The primary efficacy variable was the failure rate at week 16, defined as the percentage of subjects unable to maintain 50% of total lesion count improvement from the previous 12-week combination therapy study (e.g., a subject entering the maintenance phase after having lost 40 lesions in the combination study was considered as a failure if the lesion count at the end of the maintenance study was increased by more than 20 lesions). Data from this assessment is presented graphically herein as a maintenance rate, which is simply 100% minus the failure rate. Secondary efficacy variables included lesion counts (total, inflammatory and non inflammatory), failure rates for inflammatory and non-inflammatory lesions, as well as global severity and global improvement of the disease. At the last visit, subject satisfaction was assessed via a 5-question survey.

The compound `COc1ccc(-c2ccc3cc(C(=O)O)ccc3c2)cc1C12CC3CC(CC(C3)C1)C2` [adapalene, 6-[3-(1-adamantyl)-4-methoxyphenyl]-2-naphtoic acid] yielded a discontinuation rate in series [1] of 11.1%. Also, in series [2] (P=0.003 vs vehicle), the “subjects "very satisfied" or "satisfied" with the treatment effectiveness” value turned out to be 75%. The “subjects "very satisfied" or "satisfied" with the overall maintenance treatment” value in series [2] (P=0.01 vs vehicle) is 76%. In addition, the “subjects "very satisfied" or "satisfied" with the overall treatment scheme beginning with the combination therapy” value in series [2] (P=0.02 vs vehicle) came to 84%. Moreover, the “subjects who felt better about themselves after the study” value in series [2] (P=0.41 vs vehicle) amounted to 73%.
